Compound in this assay: CN[C@@H]1C[C@H]2O[C@@](C)([C@@H]1OC)n1c3ccccc3c3c4c(c5c6ccccc6n2c5c31)C(=O)NC4 [staurosporine]
Kind of assay: log2 fold change of tryptic peptide abundance, ligand vs vehicle (limited proteolysis) (log2 ratio); higher = more trypsin-susceptible (destabilized). As to conditions: ligand concentration: 20 uM; sample: mouse liver crude lysate; replicate design: treated separately.

Sequences of proteins named here, by UniProt entry; tags and fusion partners are left off. A change or cut given only in a name is not applied to a line headed by its entry.
UniProt Q9D824: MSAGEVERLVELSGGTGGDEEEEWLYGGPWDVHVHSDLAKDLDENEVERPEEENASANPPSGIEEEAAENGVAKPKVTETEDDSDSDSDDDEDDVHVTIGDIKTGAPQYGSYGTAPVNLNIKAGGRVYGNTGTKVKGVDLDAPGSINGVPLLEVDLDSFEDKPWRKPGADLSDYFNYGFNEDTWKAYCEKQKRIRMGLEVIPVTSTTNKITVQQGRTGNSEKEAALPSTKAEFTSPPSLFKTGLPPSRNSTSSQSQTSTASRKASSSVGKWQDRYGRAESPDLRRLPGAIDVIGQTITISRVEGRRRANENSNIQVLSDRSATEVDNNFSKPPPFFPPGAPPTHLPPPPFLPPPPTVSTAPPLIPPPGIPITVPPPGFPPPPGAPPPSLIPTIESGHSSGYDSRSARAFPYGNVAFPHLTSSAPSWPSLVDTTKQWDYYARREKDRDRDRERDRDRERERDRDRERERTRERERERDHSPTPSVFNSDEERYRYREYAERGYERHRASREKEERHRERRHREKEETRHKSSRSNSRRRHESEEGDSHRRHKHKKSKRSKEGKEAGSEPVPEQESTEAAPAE
UniProt Q9D787: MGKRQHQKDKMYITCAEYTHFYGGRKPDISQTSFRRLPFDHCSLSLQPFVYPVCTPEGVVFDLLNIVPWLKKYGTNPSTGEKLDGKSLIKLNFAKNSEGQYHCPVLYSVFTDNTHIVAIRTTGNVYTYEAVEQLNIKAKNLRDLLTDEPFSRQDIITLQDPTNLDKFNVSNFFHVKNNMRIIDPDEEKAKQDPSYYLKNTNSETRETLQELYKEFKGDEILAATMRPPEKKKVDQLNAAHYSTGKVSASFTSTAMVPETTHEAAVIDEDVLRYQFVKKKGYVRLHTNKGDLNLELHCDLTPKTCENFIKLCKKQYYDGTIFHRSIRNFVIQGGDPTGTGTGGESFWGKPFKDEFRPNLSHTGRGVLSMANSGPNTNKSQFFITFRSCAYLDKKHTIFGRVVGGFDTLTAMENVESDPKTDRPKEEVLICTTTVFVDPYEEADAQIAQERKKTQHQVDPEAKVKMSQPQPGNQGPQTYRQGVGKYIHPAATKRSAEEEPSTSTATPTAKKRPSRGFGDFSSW
UniProt Q9D1R1: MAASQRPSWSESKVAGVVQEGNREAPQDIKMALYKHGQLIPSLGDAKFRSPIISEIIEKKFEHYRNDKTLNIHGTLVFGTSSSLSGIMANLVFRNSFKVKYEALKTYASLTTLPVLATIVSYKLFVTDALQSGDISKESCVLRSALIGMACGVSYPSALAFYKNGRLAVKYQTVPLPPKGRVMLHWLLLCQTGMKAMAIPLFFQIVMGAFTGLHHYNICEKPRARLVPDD
UniProt Q9D2X8: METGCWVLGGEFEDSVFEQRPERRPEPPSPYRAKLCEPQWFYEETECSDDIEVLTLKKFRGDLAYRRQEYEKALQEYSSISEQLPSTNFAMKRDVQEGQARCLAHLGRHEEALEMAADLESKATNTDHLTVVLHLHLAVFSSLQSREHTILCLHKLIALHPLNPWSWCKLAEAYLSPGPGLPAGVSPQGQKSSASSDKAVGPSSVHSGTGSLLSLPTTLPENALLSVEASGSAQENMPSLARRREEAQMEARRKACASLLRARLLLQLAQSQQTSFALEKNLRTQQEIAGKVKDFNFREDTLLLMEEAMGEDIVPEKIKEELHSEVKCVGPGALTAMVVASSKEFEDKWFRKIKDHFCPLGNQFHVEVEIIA
UniProt Q9D968: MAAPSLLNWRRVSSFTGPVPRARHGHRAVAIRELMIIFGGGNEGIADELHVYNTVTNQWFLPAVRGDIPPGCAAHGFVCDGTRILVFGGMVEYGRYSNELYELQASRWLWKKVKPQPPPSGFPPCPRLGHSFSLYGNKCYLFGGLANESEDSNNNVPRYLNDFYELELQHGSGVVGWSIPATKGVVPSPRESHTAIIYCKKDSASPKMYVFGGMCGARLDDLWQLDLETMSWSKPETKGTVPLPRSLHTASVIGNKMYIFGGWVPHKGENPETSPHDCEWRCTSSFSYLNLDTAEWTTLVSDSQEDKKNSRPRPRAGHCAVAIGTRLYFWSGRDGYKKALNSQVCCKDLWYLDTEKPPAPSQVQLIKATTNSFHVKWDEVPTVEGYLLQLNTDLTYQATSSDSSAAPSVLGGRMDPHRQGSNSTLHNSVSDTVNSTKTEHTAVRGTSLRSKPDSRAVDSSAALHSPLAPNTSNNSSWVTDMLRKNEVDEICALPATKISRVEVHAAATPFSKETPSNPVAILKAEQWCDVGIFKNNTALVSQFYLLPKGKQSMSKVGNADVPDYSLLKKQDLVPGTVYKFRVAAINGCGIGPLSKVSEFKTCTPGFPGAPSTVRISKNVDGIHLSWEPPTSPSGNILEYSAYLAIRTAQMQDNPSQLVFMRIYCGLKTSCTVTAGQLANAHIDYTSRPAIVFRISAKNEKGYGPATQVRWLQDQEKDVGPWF
UniProt Q9D662: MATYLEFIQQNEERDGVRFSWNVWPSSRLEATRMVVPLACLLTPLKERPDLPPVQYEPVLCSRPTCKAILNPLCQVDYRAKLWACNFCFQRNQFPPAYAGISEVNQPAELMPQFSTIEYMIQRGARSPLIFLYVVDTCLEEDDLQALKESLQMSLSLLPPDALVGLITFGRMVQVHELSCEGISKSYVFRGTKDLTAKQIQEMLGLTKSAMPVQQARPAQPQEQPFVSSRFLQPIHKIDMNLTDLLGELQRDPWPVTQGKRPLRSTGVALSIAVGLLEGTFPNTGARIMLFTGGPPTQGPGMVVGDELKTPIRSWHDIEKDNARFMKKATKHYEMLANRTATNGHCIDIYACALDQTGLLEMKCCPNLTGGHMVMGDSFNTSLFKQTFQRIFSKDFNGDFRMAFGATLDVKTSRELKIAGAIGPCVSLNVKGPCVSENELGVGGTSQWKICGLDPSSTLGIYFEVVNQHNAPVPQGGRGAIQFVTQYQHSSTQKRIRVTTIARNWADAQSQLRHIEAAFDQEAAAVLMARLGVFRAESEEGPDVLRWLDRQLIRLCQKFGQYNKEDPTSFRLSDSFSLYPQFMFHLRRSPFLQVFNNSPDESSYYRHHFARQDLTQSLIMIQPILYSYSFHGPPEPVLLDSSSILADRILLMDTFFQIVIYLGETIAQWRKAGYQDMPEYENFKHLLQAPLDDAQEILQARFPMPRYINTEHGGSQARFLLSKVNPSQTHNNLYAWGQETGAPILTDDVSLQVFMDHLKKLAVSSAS
UniProt Q9D516: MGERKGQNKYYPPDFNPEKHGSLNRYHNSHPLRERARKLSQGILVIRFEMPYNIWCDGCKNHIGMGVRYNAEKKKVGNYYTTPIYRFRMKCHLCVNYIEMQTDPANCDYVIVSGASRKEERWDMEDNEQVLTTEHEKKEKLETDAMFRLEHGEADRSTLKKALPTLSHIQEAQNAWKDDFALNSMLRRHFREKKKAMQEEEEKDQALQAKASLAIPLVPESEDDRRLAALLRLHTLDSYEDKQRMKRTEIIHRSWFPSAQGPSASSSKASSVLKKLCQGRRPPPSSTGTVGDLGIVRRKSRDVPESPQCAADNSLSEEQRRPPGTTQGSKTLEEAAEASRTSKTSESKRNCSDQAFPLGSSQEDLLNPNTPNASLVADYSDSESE
UniProt Q9D883: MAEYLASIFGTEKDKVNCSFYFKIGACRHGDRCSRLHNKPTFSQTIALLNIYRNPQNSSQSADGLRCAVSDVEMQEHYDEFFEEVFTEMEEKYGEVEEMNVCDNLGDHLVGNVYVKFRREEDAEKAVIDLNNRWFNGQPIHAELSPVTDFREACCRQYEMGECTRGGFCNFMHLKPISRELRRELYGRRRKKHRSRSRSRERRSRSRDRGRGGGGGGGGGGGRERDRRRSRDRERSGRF
UniProt Q9D3A8: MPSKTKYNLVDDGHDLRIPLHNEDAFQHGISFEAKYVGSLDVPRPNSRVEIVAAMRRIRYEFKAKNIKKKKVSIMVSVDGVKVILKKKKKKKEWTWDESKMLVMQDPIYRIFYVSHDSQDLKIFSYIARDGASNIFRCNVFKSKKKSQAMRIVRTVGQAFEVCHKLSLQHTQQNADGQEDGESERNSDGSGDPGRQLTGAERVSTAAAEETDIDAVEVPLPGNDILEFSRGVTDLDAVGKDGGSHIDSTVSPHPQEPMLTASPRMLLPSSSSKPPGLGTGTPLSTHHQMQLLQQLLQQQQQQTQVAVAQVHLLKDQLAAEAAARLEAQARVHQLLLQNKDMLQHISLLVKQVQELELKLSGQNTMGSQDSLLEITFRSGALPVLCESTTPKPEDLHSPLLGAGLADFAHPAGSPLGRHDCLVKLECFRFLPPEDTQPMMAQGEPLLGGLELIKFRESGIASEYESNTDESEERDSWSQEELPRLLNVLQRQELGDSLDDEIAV
UniProt Q9D937: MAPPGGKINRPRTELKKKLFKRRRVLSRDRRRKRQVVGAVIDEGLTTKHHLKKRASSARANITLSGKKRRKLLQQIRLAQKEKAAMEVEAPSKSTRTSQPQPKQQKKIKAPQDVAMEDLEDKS
UniProt Q9D8T7: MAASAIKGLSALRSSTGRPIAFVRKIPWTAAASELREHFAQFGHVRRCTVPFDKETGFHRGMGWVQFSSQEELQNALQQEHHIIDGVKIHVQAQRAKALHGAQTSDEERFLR

The other results are listed elsewhere or left out. Most entries show no effect beyond the scatter of the controls.

Turning to “UniProt Q9D824 (peptide sequence: YREYAER, peptide start residue: 494)”, the log2 fold change is 0.212.
With “UniProt Q9D787 (peptide sequence: KKTQHQVDPEAK, peptide start residue: 450)”, the log2 fold change is -0.535.
For “UniProt Q9D1R1 (peptide sequence: FRSPIISEIIEK, peptide start residue: 48)”, the log2 fold change is 0.221.
Then “UniProt Q9D2X8 (peptide sequence: LIALHPLNPWSWCK, peptide start residue: 156)”, with 0.436; and “UniProt Q9D968 (peptide sequence: VEVHAAATPFSK, peptide start residue: 501)”, with -0.235; and “UniProt Q9D662 (peptide sequence: NWADAQSQLR, peptide start residue: 504)”, with -0.258.
With “UniProt Q9D516 (peptide sequence: LHTLDSYEDKQR, peptide start residue: 233)”, the log2 fold change was -0.53.
Take “UniProt Q9D883 (peptide sequence: GGFCNFMHLKPISR, peptide start residue: 166)”: the log2 fold change was 0.127.
Consider “UniProt Q9D3A8 (peptide sequence: DGGSHIDSTVSPHPQEPMLTASPR, peptide start residue: 241)”, for which the log2 fold change is -0.356.
Take “UniProt Q9D937 (peptide sequence: AAMEVEAPSK, peptide start residue: 84)”: the log2 fold change is -0.143.
Turning to “UniProt Q9D8T7 (peptide sequence: KIPWTAAASELR, peptide start residue: 25)”, the log2 fold change is 0.165.
